This is a noisy data set.
Tested on: Sindbis virus TE/5'2J-GFP
Test: percent infected (GFP+ in RFP+ ISG-expressing cells); higher = more infection (less antiviral activity)
Conditions: experiment: primary screen (single well)

Sequence | percent infected (BHK/HA-Zeo (control)) | percent infected (BHK/NZAP-Zeo (ZAP))
MPRCPAGAMDEGPVDLRTRPKAAGLPGAALPLRKRPLRAPSPEPAAPRGAAGLVVPLDPLRGGCDLPAVPGPPHGLARPEALYYPGALLPLYPTRAMGSPFPLVNLPTPLYPMMCPMEHPLSADIAMATRADEDGDTPLHIAVVQGNLPAVHRLVNLFQQGGRELDIYNNLRQTPLHLAVITTLPSVVRLLVTAGASPMALDRHGQTAAHLACEHRSPTCLRALLDSAAPGTLDLEARNYDGLTALHVAVNTECQETVQLLLERGADIDAVDIKSGRSPLIHAVENNSLSMVQLLLQHGANVNAQMYSGSSALHSASGRGLLPLVRTLVRSGADSSLKNCHNDTPLMVARSRRVIDILRGKATRPASTSQPDPSPDRSANTSPESSSRLSSNGLLSASPSSSPSQSPPRDPPGFPMAPPNFFLPSPSPPAFLPFAGVLRGPGRPVPPSPAPGGS [BCL3] | 98% | 97.6%
MPRIDADLKLDFKDVLLRPKRSSLKSRAEVDLERTFTFRNSKQTYSGIPIIVANMDTVGTFEMAAVMSQHSMFTAIHKHYSLDDWKLFATNHPECLQNVAVSSGSGQNDLEKMTSILEAVPQVKFICLDVANGYSEHFVEFVKLVRAKFPEHTIMAGNVVTGEMVEELILSGADIIKVGVGPGSVCTTRTKTGVGYPQLSAVIECADSAHGLKGHIISDGGCTCPGDVAKAFGAGADFVMLGGMFSGHTECAGEVFERNGRKLKLFYGMSSDTAMNKHAGGVAEYRASEGKTVEVPYKGDVENTILDILGGLRSTCTYVGAAKLKELSRRATFIRVTQQHNTVFS [GMPR] | 97.1% | 89.5%
MPRQLSAAAALFASLAVILHDGSQMRAKAFPETRDYSQPTAAATVQDIKKPVQQPAKQAPHQTLAARFMDGHITFQTAATVKIPTTTPATTKNTATTSPITYTLVTTQATPNNSHTAPPVTEVTVGPSLAPYSLPPTITPPAHTTGTSSSTVSHTTGNTTQPSNQTTLPATLSIALHKSTTGQKPVQPTHAPGTTAAAHNTTRTAAPASTVPGPTLAPQPSSVKTGIYQVLNGSRLCIKAEMGIQLIVQDKESVFSPRRYFNIDPNATQASGNCGTRKSNLLLNFQGGFVNLTFTKDEESYYISEVGAYLTVSDPETIYQGIKHAVVMFQTAVGHSFKCVSEQSLQLSAHLQVKTTDVQLQAFDFEDDHFGNVDECSSDYTIVLPVIGAIVVGLCLMGMGVYKIRLRCQSSGYQRI [LAMP3] | 97.7% | 83.8%
MPSGCHSSPPSGLRGDMASLVPLSPYLSPTVLLLVSCDLGFVRADRPPSPVNVTVTHLRANSATVSWDVPEGNIVIGYSISQQRQNGPGQRVIREVNTTTRACALWGLAEDSDYTVQVRSIGLRGESPPGPRVHFRTLKGSDRLPSNSSSPGDITVEGLDGERPLQTGEVVIIVVVLLMWAAVIGLFCRQYDIIKDNDSNNNPKEKGKGPEQSPQGRPVGTRQKKSPSINTIDV [FNDC4] | 98.2% | 93.8%
MPSLWDRFSSSSTSSSPSSLPRTPTPDRPPRSAWGSATREEGFDRSTSLESSDCESLDSSNSGFGPEEDTAYLDGVSLPDFELLSDPEDEHLCANLMQLLQESLAQARLGSRRPARLLMPSQLVSQVGKELLRLAYSEPCGLRGALLDVCVEQGKSCHSVGQLALDPSLVPTFQLTLVLRLDSRLWPKIQGLFSSANSPFLPGFSQSLTLSTGFRVIKKKLYSSEQLLIEEC [DDIT4] | 94.9% | 79.9%
MPVERMRMRPWLEEQINSNTIPGLKWLNKEKKIFQIPWMHAARHGWDVEKDAPLFRNWAIHTGKHQPGVDKPDPKTWKANFRCAMNSLPDIEEVKDKSIKKGNNAFRVYRMLPLSERPSKKGKKPKTEKEDKVKHIKQEPVESSLGLSNGVSDLSPEYAVLTSTIKNEVDSTVNIIVVGQSHLDSNIENQEIVTNPPDICQVVEVTTESDEQPVSMSELYPLQISPVSSYAESETTDSVPSDEESAEGRPHWRKRNIEGKQYLSNMGTRGSYLLPGMASFVTSNKPDLQVTIKEESNPVPYNSSWPPFQDLPLSSSMTPASSSSRPDRETRASVIKKTSDITQARVKSC [IRF2] | 94.9% | 12.1%
MPVKGGTKCIKYLLFGFNFIFWLAGIAVLAIGLWLRFDSQTKSIFEQETNNNNSSFYTGVYILIGAGALMMLVGFLGCCGAVQESQCMLGLFFGFLLVIFAIEIAAAIWGYSHKDEVIKEVQEFYKDTYNKLKTKDEPQRETLKAIHYALNCCGLAGGVEQFISDICPKKDVLETFTVKSCPDAIKEVFDNKFHIIGAVGIGIAVVMIFGMIFSMILCCAIRRNREMV [CD9] | 95.7% | 88%
MQAKKRYFILLSAGSCLALLFYFGGLQFRASRSHSRREEHSGRNGLHHPSPDHFWPRFPDALRPFVPWDQLENEDSSVHISPRQKRDANSSIYKGKKCRMESCFDFTLCKKNGFKVYVYPQQKGEKIAESYQNILAAIEGSRFYTSDPSQACLFVLSLDTLDRDQLSPQYVHNLRSKVQSLHLWNNGRNHLIFNLYSGTWPDYTEDVGFDIGQAMLAKASISTENFRPNFDVSIPLFSKDHPRTGGERGFLKFNTIPPLRKYMLVFKGKRYLTGIGSDTRNALYHVHNGEDVVLLTTCKHGKDWQKHKDSRCDRDNTEYEKYDYREMLHNATFCLVPRGRRLGSFRFLEALQAACVPVMLSNGWELPFSEVINWNQAAVIGDERLLLQIPSTIRSIHQDKILALRQQTQFLWEAYFSSVEKIVLTTLEIIQDRIFKHISRNSLIWNKHPGGLFVLPQYSSYLGDFPYYYANLGLKPPSKFTAVIHAVTPLVSQSQPVLKLLVAAAKSQYCAQIIVLWNCDKPLPAKHRWPATAVPVVVIEGESKVMSSRFLPYDNIITDAVLSLDEDTVLSTTEVDFAFTVWQSFPERIVGYPARSHFWDNSKERWGYTSKWTNDYSMVLTGAAIYHKYYHYLYSHYLPASLKNMVDQLANCEDILMNFLVSAVTKLPPIKVTQKKQYKETMMGQTSRASRWADPDHFAQRQSCMNTFASWFGYMPLIHSQMRLDPVLFKDQVSILRKKYRDIERL [EXT1] | 97.9% | 94.2%
MQEGELAISPISPVAAMPPLGTHVQARCEAQINLLGEGGICKLPGRLRIQPALWSREDVLHWLRWAEQEYSLPCTAEHGFEMNGRALCILTKDDFRHRAPSSGDVLYELLQYIKTQRRALVCGPFFGGIFRLKTPTQHSPVPPEEVTGPSQMDTRRGHLLQPPDPGLTSNFGHLDDPGLARWTPGKEESLNLCHCAELGCRTQGVCSFPAMPQAPIDGRIADCRLLWDYVYQLLLDTRYEPYIKWEDKDAKIFRVVDPNGLARLWGNHKNRVNMTYEKMSRALRHYYKLNIIKKEPGQKLLFRFLKTPGKMVQDKHSHLEPLESQEQDRIEFKDKRPEISP [ETV7] | 97.4% | 82.6%
MQLRKMQTVKKEQASLDASSNVDKMMVLNSALTEVSEDSTTGEELLLSEGSVGKNKSSACRRKREFIPDEKKDAMYWEKRRKNNEAAKRSREKRRLNDLVLENKLIALGEENATLKAELLSLKLKFGLISSTAYAQEIQKLSNSTAVYFQDYQTSKSNVSSFVDEHEPSMVSSSCISVIKHSPQSSLSDVSEVSSVEHTQESSVQGSCRSPENKFQIIKQEPMELESYTREPRDDRGSYTASIYQNYMGNSFSGYSHSPPLLQVNRSSSNSPRTSETDDGVVGKSSDGEDEQQVPKGPIHSPVELKHVHATVVKVPEVNSSALPHKLRIKAKAMQIKVEAFDNEFEATQKLSSPIDMTSKRHFELEKHSAPSMVHSSLTPFSVQVTNIQDWSLKSEHWHQKELSGKTQNSFKTGVVEMKDSGYKVSDPENLYLKQGIANLSAEVVSLKRLIATQPISASDSG [NFIL3] | 98.1% | 92.3%
MQPWHGKAMQRASEAGATAPKASARNARGAPMDPTESPAAPEAALPKAGKFGPARKSGSRQKKSAPDTQERPPVRATGARAKKAPQRAQDTQPSDATSAPGAEGLEPPAAREPALSRAGSCRQRGARCSTKPRPPPGPWDVPSPGLPVSAPILVRRDAAPGASKLRAVLEKLKLSRDDISTAAGMVKGVVDHLLLRLKCDSAFRGVGLLNTGSYYEHVKISAPNEFDVMFKLEVPRIQLEEYSNTRAYYFVKFKRNPKENPLSQFLEGEILSASKMLSKFRKIIKEEINDIKDTDVIMKRKRGGSPAVTLLISEKISVDITLALESKSSWPASTQEGLRIQNWLSAKVRKQLRLKPFYLVPKHAKEGNGFQEETWRLSFSHIEKEILNNHGKSKTCCENKEEKCCRKDCLKLMKYLLEQLKERFKDKKHLDKFSSYHVKTAFFHVCTQNPQDSQWDRKDLGLCFDNCVTYFLQCLRTEKLENYFIPEFNLFSSNLIDKRSKEFLTKQIEYERNNEFPVFDEF [C6orf150] | 98.5% | 96.6%
MQTCPLAFPGHVSQALGTLLFLAASLSAQNEGWDSPICTEGVVSVSWGENTVMSCNISNAFSHVNIKLRAHGQESAIFNEVAPGYFSRDGWQLQVQGGVAQLVIKGARDSHAGLYMWHLVGHQRNNRQVTLEVSGAEPQSAPDTGFWPVPAVVTAVFILLVALVMFAWYRCRCSQQRREKKFFLLEPQMKVAALRAGAQQGLSRASAELWTPDSEPTPRPLALVFKPSPLGALELLSPQPLFPYAADP [SECTM1] | 97.6% | 91.6%
MRAAAISTPKLDKMPGMFFSANPKELKGTTHSLLDDKMQKRRPKTFGMDMKAYLRSMIPHLESGMKSSKSKDVLSAAEVMQWSQSLEKLLANQTGQNVFGSFLKSEFSEENIEFWLACEDYKKTESDLLPCKAEEIYKAFVHSDAAKQINIDFRTRESTAKKIKAPTPTCFDEAQKVIYTLMEKDSYPRFLKSDIYLNLLNDLQANSLK [RGS1] | 96.8% | 85.3%
MRLPDLRPWTSLLLVDAALLWLLQGPLGTLLPQGLPGLWLEGTLRLGGLWGLLKLRGLLGFVGTLLLPLCLATPLTVSLRALVAGASRAPPARVASAPWSWLLVGYGAAGLSWSLWAVLSPPGAQEKEQDQVNNKVLMWRLLKLSRPDLPLLVAAFFFLVLAVLGETLIPHYSGRVIDILGGDFDPHAFASAIFFMCLFSFGSSLSAGCRGGCFTYTMSRINLRIREQLFSSLLRQDLGFFQETKTGELNSRLSSDTTLMSNWLPLNANVLLRSLVKVVGLYGFMLSISPRLTLLSLLHMPFTIAAEKVYNTRHQEVLREIQDAVARAGQVVREAVGGLQTVRSFGAEEHEVCRYKEALEQCRQLYWRRDLERALYLLVRRVLHLGVQMLMLSCGLQQMQDGELTQGSLLSFMIYQESVGSYVQTLVYIYGDMLSNVGAAEKVFSYMDRQPNLPSPGTLAPTTLQGVVKFQDVSFAYPNRPDRPVLKGLTFTLRPGEVTALVGPNGSGKSTVAALLQNLYQPTGGQVLLDEKPISQYEHCYLHSQVVSVGQEPVLFSGSVRNNIAYGLQSCEDDKVMAAAQAAHADDFIQEMEHGIYTDVGEKGSQLAAGQKQRLAIARALVRDPRVLILDEATSALDVQCEQALQDWNSRGDRTVLVIAHRLQTVQRAHQILVLQEGKLQKLAQL [TAP2] | 97.8% | 91.8%
MRQKAVSLFLCYLLLFTCSGVEAGKKKCSESSDSGSGFWKALTFMAVGGGLAVAGLPALGFTGAGIAANSVAASLMSWSAILNGGGVPAGGLVATLQSLGAGGSSVVIGNIGALMGYATHKYLDSEEDEE [IFI6] | 92.8% | 86.4%

Source: the supplement of paper PMC3353916
